Laboratory results reported in US5223486A, “Inhibition of cancer procoagulant” (University Research Corporation, priority 1991, dated 1993).
For at least one compound, name, drawing or mass did not settle the structure. Where a SMILES comes first, the peptide text is derived from it. [ ]: non-standard residue; d: D form. The star is where a group is joined. ξ: configuration not given here. Cbz = O=C(OCc1ccccc1)*; CHN2 = [N-]=[N+]=C*; ξP = O=C(O)C1CCCN1

Tests used:
[1] = molecular target: T1, bovine spleen cathepsin B (Bos taurus, UniProt P07688); details: cited from earlier work
T1 construct: host or cells: bovine spleen

cancer procoagulant (CP) = assay: one-stage plasma recalcification clotting time assay, inhibition of CP procoagulant activity; assay type: biochemical, rabbit; details: 100 μM inhibitor, 30 min at 25° C.

| SMILES | Ki [1] | percent inhibition of CP (cancer procoagulant (CP)) |
| --- | --- | --- |
| C[C@H](NC(=O)[C@H](Cc1ccccc1)NC(=O)OCc1ccccc1)C(=O)C=[N+]=[N-] [D1, Z-Phe-Ala diazomethyl ketone] | 1.7-10^-6 M | – |
| [N-]=[N+]=CC(=O)CNC(=O)C1CCCN1C(=O)OCc1ccccc1 (centres unmarked) [D3, Z-Pro-Gly diazomethyl ketone] (Cbz-[ξP]-Gly-CHN2) | – | 3I % |
